The target in experiment [1] is T1, Enp1-TAP (yeast (S. cerevisiae)) (UniProt P38333).
T1 sequence: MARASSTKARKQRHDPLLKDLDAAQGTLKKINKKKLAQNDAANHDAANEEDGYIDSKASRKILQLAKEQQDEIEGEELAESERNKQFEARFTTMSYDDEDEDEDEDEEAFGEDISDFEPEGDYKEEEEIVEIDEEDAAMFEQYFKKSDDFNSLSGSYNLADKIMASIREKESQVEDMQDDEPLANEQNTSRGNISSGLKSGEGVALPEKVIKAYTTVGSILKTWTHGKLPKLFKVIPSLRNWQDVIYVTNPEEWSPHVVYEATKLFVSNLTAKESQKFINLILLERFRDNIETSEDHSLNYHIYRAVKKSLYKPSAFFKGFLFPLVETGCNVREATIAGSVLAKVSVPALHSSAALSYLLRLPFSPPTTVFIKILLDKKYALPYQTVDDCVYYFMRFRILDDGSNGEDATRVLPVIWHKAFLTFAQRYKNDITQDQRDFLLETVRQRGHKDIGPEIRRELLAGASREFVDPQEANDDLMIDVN
As to the kind of experiment: tandem affinity purification (TAP) with Western blot; Enp1-TAP isolated by TAP from SLX9 or slx9-1 yeast cells; calmodulin eluates on 4-12% gradient gel, silver staining or Western. In general terms: Immunoblotting shows a protein as a band on a membrane.

Experiment [2] concerns the target T2, GST-Ltv1 (yeast (S. cerevisiae)), P34078.
T2 chain: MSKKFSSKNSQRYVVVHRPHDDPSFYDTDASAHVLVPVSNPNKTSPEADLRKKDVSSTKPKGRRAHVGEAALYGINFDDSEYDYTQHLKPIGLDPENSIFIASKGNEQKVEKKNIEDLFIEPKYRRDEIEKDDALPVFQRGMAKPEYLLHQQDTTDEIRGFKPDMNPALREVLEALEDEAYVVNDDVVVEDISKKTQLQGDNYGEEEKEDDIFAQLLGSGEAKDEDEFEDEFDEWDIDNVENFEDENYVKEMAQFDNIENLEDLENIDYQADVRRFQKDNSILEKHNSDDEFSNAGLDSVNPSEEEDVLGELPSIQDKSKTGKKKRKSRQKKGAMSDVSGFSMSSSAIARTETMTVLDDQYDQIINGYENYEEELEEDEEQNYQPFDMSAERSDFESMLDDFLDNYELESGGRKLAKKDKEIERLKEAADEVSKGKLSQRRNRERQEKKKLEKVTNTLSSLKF
Briefly: pull-down; GST fusion immobilised on GSH-Sepharose in PBSKMT, incubated with one purified protein (2 µM His6-Ran variant, or 0.5 µM Slx9 or Slx9-1) for 1 hr at 4°C, competing E. coli lysates present; Coomassie or Western; both purified. To be noted: remark: other sources report otherwise.

The target of experiment [3] is T3, GST-Slx9 (yeast (S. cerevisiae)) (UniProt P53251).
T3 sequence: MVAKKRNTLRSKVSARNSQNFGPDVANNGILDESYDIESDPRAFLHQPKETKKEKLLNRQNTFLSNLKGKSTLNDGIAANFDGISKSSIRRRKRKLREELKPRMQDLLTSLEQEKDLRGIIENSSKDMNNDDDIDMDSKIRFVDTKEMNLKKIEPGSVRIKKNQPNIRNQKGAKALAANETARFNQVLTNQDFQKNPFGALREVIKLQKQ
As to the kind of experiment: pull-down; GST-Slx9 immobilised on GSH-Sepharose, incubated with lysate containing His6-Nmd3 or His6-Rio2; Western; only the target purified.

Results are given in words; binding and its absence hold for the method and conditions named. For some assays here: In cells and extracts the contact can be indirect. For some assays here: Sequences can lack the tags named with a protein. Some entries that bind do so weakly or less than the wild type.

B1: Slx9 (in SLX9 yeast cells) (protein, UniProt P53251 1-210)
chain: MVAKKRNTLRSKVSARNSQNFGPDVANNGILDESYDIESDPRAFLHQPKETKKEKLLNRQNTFLSNLKGKSTLNDGIAANFDGISKSSIRRRKRKLREELKPRMQDLLTSLEQEKDLRGIIENSSKDMNNDDDIDMDSKIRFVDTKEMNLKKIEPGSVRIKKNQPNIRNQKGAKALAANETARFNQVLTNQDFQKNPFGALREVIKLQKQ
On to B1, for which the binding entry in experiment [1] is recorded as “binds”.

B2: Slx9 (purified, GB1-His removed), P53251 1-210 (protein)
chain: MVAKKRNTLRSKVSARNSQNFGPDVANNGILDESYDIESDPRAFLHQPKETKKEKLLNRQNTFLSNLKGKSTLNDGIAANFDGISKSSIRRRKRKLREELKPRMQDLLTSLEQEKDLRGIIENSSKDMNNDDDIDMDSKIRFVDTKEMNLKKIEPGSVRIKKNQPNIRNQKGAKALAANETARFNQVLTNQDFQKNPFGALREVIKLQKQ
With B2, in experiment [2], the binding entry is recorded as “no binding (tested: 0.5 µM)”.

B3: Slx9-1 (in slx9-1 yeast cells) (protein, UniProt P53251 1-210)
chain: MVAKKRNTLRSKVSARNSQNFGPDVANNGILDESYDIESDPRAFLHQPKETKKEKLLNRQNTFLSNLKGKSTLNDGIAANFDGISKSSIRRRKRKLREELKPRMQDLPTSLEQEKDLRGIIENSSKDMNNDDDIDMDSKIRFVDTKEMNLKKIEPGSVRIKKNQPNIRNQKGAKALAANETARFNQVLTNQDFQKNPFGALREVIKLQKQ
Turning to B3, the binding entry in experiment [1] is reported as “binds”.

B4: Ltv1 (endogenous) (protein, UniProt P34078 1-463)
chain: MSKKFSSKNSQRYVVVHRPHDDPSFYDTDASAHVLVPVSNPNKTSPEADLRKKDVSSTKPKGRRAHVGEAALYGINFDDSEYDYTQHLKPIGLDPENSIFIASKGNEQKVEKKNIEDLFIEPKYRRDEIEKDDALPVFQRGMAKPEYLLHQQDTTDEIRGFKPDMNPALREVLEALEDEAYVVNDDVVVEDISKKTQLQGDNYGEEEKEDDIFAQLLGSGEAKDEDEFEDEFDEWDIDNVENFEDENYVKEMAQFDNIENLEDLENIDYQADVRRFQKDNSILEKHNSDDEFSNAGLDSVNPSEEEDVLGELPSIQDKSKTGKKKRKSRQKKGAMSDVSGFSMSSSAIARTETMTVLDDQYDQIINGYENYEEELEEDEEQNYQPFDMSAERSDFESMLDDFLDNYELESGGRKLAKKDKEIERLKEAADEVSKGKLSQRRNRERQEKKKLEKVTNTLSSLKF
For the molecule B4, the binding entry in experiment [1] was “binds”.

B5: His6-Nmd3 (protein, UniProt P38861 1-518)
chain: MEFTPIDPHQHQNAATLLCCNCGTPIDGSTGLVMCYDCIKLTVDITQGIPREANISFCRNCERFLQPPGQWIRAELESRELLAICLRRLKGLTKVRLVDASFIWTEPHSRRIRIKLTVQGEAMTNTIIQQTFEVEYIVIAMQCPDCARSYTTNTWRATVQIRQKVPHKRTFLFLEQLILKHNAHVDTISISEAKDGLDFFYAQKNHAVKMIDFLNAVVPIKHKKSEELISQDTHTGASTYKFSYSVEIVPICKDDLVVLPKKLAKSMGNISQFVLCSKISNTVQFMDPTTLQTADLSPSVYWRAPFNALADVTQLVEFIVLDVDSTGISRGNRVLADITVARTSDLGVNDQVYYVRSHLGGICHAGDSVMGYFIANSNYNSDLFDGLNIDYVPDVVLVKKLYQRKSKKSRHWKLKRMAKEHKDIDASLDYNSRAQKQEMERAEKDYELFLQELEEDAELRQSVNLYKNREANVPPEEHEMDEDEDEDAPQINIDELLDELDEMTLEDGVENTPVESQQ
In the case of B5, the binding result in experiment [3] is recorded as “no binding”.
